# Measured values from PubChem BioAssay AID1508600 (Functional Genomics Laboratory (NCATS/FGL), 2020).
# In all, about 53,000 sequences went through this assay and about 3,700 (7%) were called active.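 How the source made its calls: active means gene knockdowns whose robust z-score for IL-1 alpha signal is at least 2 or at most -2, so actives lie on both sides; inactive means the rest.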 Some of the results follow.
# Test: Components of the Cytosolic LPS Sensing Pathway: Gene Identification via Genome-wide siRNA Screen;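 further: robust z of the log signal after scaling to non-targeting control siRNA wells of the plate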
# Settings: RAW264.7 macrophages, IL-1a HTRF, actives lie on both sides, screened at 100 nM (by protocol), cells primed 5 h with Pam3CSK4 first
# Procedure, shortened: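 Mouse macrophage line RAW264.7 is transfected with siRNA (100 nM final), grown 48h, primed with TLR ligand Pam3CSK4 5 h and given intracellular LipidA 24 h. IL-1a in supernatant is read by HTRF and viability by luminescence.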
row,Sequence,z-score
1,GGCACACAAGAUUCUAGUGTT against Git2,inactive: 0.364
2,GCAUGUUAAGCCUUGUAUATT against Tnpo1,inactive: -1.67
3,GGAUAGCAAAUUCAUCACATT against Ptprg,inactive: -0.214
4,GGAAUUCACUUCGAGGCAUTT against Npas2,inactive: 0.178
5,GGCCAAUUAAUUCUUACAGTT against Srl,inactive: 1.57
6,GGAAGAUAUGAAGGGCUCATT against Mb,active: -2.18
7,GGCUGUCUGCUGAAAUGAUTT against Zmym6,inactive: 0.754
8,CGACAGCACUAUGCUGGGUTT against Psmb4,inactive: -1.49
9,GCUAGACUCCUACAGCAAUTT against Prss8,inactive: 0.802
10,GGUUCAGCUUUUCAUCAGUTT against Cops3,inactive: 1.37
11,GCAGUGUAUAGGUGUACAATT against Krt2,active: 3
12,GGUGCUACAAUUCUGUGCGTT against Plaat5,inactive: -0.127
13,CGCUCUUUCAGCACAAGAATT against Zfp422,inactive: -1.57
14,GAACGUGAGGCACAAAUGGTT against Rhog,inactive: 0.565
15,GCUAGGAGCUAGGAAUCCGTT against Pdzd3,inactive: -0.682
16,CGGAAAUCGUUGCUAAUCUTT against Fcgrt,inactive: 0.0477
17,GGAAGAAAUAUACAAAGACTT against Paf1,inactive: 0.517
18,GGCUGUUAUACACUAUCUGTT against Tirap,active: -2.71
19,GCAUUACUUUAAGCCAUAUTT against Rbl1,active: 3.57
20,GGAUUUCAUUAUCCUGUUUTT against Zfp608,inactive: -1.19
21,CCGAGUCAUUCAGAGAACGTT against Plekha5,inactive: 0.978
22,GCCAGGUACAUUCUUUGUGTT against Cd27,inactive: -0.768

row,Sequence,z-score
1,CCAUGUGGCUGAGAGAUUGTT against Vgll2,inactive: 1.12
2,GCCAUGCCUUAAUCUUGGUTT against Cd300lf,inactive: 0.0466
3,GGCAGACGAAUGGUGCAAATT against Dok5,inactive: 0.958
4,CCAAAUAAUUACUAGGCCUTT against Prdx2,inactive: -0.271
5,GGGAGUUUUUAUAUGGUUUTT against Ybey,inactive: 1.27
6,GGAUCAGUACCCGUAUUUGTT against Plin2,active: -2.38
7,GGGUGAAAUCUAUCUCCAUTT against Agfg1,inactive: -1.85
8,GGGAUAUGCAGAGAAUAGATT against Tmco5,inactive: 1.3
9,GGAAGAUUCUUACCUCUGATT against Rngtt,inactive: -1.12
10,GGUCUUACUCUUCAUAAUATT against Olfr1301,inactive: -1.39
11,GGGACAAAGUAAUAAAGUGTT against Lce1a2,inactive: -0.335
12,GGUACAGGUUGAUGCACUUTT against Ccdc120,inactive: 0.399
13,GGUCUUCCUAUCUAGAACCTT against Dym,inactive: -0.241
14,GGAUCAUUCCUUUGGUUAGTT against Fabp5,inactive: -1.34
15,GGUUGACUAUACUGAAAAGTT against Prrc2a,inactive: -0.606
16,GGAGCUACUGUACCUUGCUTT against Ncapg2,inactive: -1.29
17,GGACAAGUGCCUCUCACCATT against Glis2,active: -3.25
18,GCAGUGGUAAUUCGACAACTT against Rpl23,inactive: 1.18
19,GGGCAUUUGUGAAGUAUAUTT against Zfp14,inactive: -0.646
20,GGGACUCAUGGGAUUGAAATT against Rtp2,inactive: 1.07
21,GGAUCCUCUUUUGUGGGACTT against Chst4,inactive: -1.89
22,GGCACUGAAGGAGAACCUGTT against Rbbp8nl,inactive: -0.336

# Some values from the results shown:
# For z-score, GGAUCAGUACCCGUAUUUGTT against Plin2 shows active: -2.38
# For z-score, CCAAAUAAUUACUAGGCCUTT against Prdx2 shows inactive: -0.271

# (next part)

row,Sequence,z-score
1,GCUUCUACCUACGCAAUAATT against Nox4,inactive: -1.31
2,GGUUAUUCCUAGCUUUAGCTT against Vmn1r190-ps,inactive: 1.02
3,GCCAGUGGUAUGAGCUUGUTT against Ctdnep1,inactive: 0.177
4,GGGAUUCACUUCACUUAAGTT against Olfr294,inactive: 0.281
5,GCAGUUGACCACAGAAAAUTT against BC061237,inactive: -1.35
6,CCCUAAGAGAGCCUAAAACTT against Serpina3c,inactive: -1.12
7,GGAACUGACUCUAAACAAATT against Slc22a6,inactive: 0.545
8,CGAGAGUCUAACCAAGUACTT against Arhgdib,inactive: -1.89
9,CCUAAUAACUGGACUUUAGTT against Spats2,inactive: -1.53
10,CGAACACUAAGCUUUGAUATT against Rab11fip2,inactive: -0.493
11,GGCAGAAGCAAUGAACUAUTT against Npm1,inactive: 0.172
12,GAAAGCGAUGGAGAUCUUATT against Pf4,inactive: 1.03
13,GGACCUACGUCUUGUCUCCTT against Greb1,inactive: 1.14
14,GCGGCAACAUUCAAAGUGGTT against Itgb2l,inactive: -1.94
15,GGAGGUCAGACCAGUUUACTT against Htr3b,active: 2.15
16,CCAGCUCAAGCUUUCCACATT against Olfr1105,inactive: 1.41
17,GGGAAGGAAACCUAGUAAATT against Peg12,inactive: 0.461
18,GGAAGCUGAUGAGAAUUACTT against Stx4a,inactive: 1.22
19,GGAAUCCUGAUGGUGAUGATT against Mttp,inactive: -1.25
20,GGACGAGCUGUAUUUGAAUTT against Gsk3a,inactive: -0.663
21,GCCGACUCUGGAAAUUAUCTT against Nrcam,inactive: -0.345
22,GCGCACAAAAAACAUGAUATT against Plaat5,inactive: 0.211

row,Sequence,z-score
1,GCCUGCACUGAAGUUCAAUTT against Sod2,inactive: 1.7
2,CACGCGUCGGCGCAGACUCTT against Hmx2,inactive: -1.85
3,GGCGCAUCAUUAUUACCUCTT against Dennd1b,inactive: 0.0167
4,GGGUCAGGAAAAACAGCGATT against Slc15a1,inactive: -1.63
5,CCUCACUAAGUGAGCCUUCTT against Iba57,inactive: -0.309
6,GGUACCAACGUGUAUGGCATT against Gpaa1,inactive: 0.182
7,CCGAUACUUGAACUCUUUUTT against Ctso,inactive: 0.0788
8,CCAGUUUCGGAUUCAGUAGTT against Krt73,inactive: 0.263
9,GGCCUUCUAAAGCUGUGAUTT against 6330403K07Rik,active: -2.7
10,GCAACUAGCCUGUUCUAUCTT against Prkd2,inactive: -0.419
11,GGAAAUCAGCUGUGAAAAATT against Fbxl20,inactive: -0.628
12,GCAAUGGCUACGAAACACATT against Adam2,inactive: 0.983
13,GGAACAGGCCGAGUUAGUATT against Olfr414,inactive: 1.45
14,GGCGGAAAAGCAAAUUGGUTT against Pou1f1,inactive: -0.511
15,GGUUGUUAAGGACAAAGCATT against Cox5a,inactive: -1.76
16,GGAUUCGAUUCUUCCAAAATT against Peli2,inactive: 1.58
17,GAUCCUCAUCACAUCCGUGTT against Olfr461,inactive: -1.23
18,CCAAUUCCAACCAGGAUUUTT against Slc26a8,inactive: 0.933
19,CCAAGUCAGUGCUGUAAAGTT against F830104G03Rik,inactive: -1.58
20,CGAGGUGCUGAAAUCUUGGTT against Ddah1,inactive: 0.669
21,CCUUCACUGAGUUCUAUACTT against Pes1,inactive: -0.45
22,GGUCAAAUCAUUAAGGACATT against Pdzk1,inactive: -0.0877

# Some of the entries so far, as tab-separated lines:
row	Sequence	z-score
2	GCCAUGCCUUAAUCUUGGUTT against Cd300lf	inactive: 0.0466
3	GGCAGACGAAUGGUGCAAATT against Dok5	inactive: 0.958
4	CCAAAUAAUUACUAGGCCUTT against Prdx2	inactive: -0.271
5	GGGAGUUUUUAUAUGGUUUTT against Ybey	inactive: 1.27
6	GGAUCAGUACCCGUAUUUGTT against Plin2	active: -2.38
7	GGGUGAAAUCUAUCUCCAUTT against Agfg1	inactive: -1.85
8	GGGAUAUGCAGAGAAUAGATT against Tmco5	inactive: 1.3

# (listing goes on)

row,Sequence,z-score
1,GGUCUACCUAAAACUGGAGTT against Cbln4,inactive: 0.337
2,CCGCCUCGUACAUGAUAUUTT against Mrgpra2b,inactive: 0.653
3,CCACUGUCCCAAACAUGUUTT against Olfr847,inactive: -1.46
4,GGAGAGGGUCUUAGUCAGATT against Wasf1,inactive: 0.802
5,CCAAACUUACAAAUAUGCGTT against Sgpp1,inactive: 1.35
6,GGGAAGAAACAUCAGACUATT against Sf3a2,inactive: -1.91
7,GGGCUGCUCAAAGUUUUUGTT against Myadm,inactive: 0.973
8,GGAGGAGGAGCCAGAAAAGTT against Zswim2,inactive: 0.296
9,GGAACUGGAUCCUAGGAUATT against Sh3bp5l,inactive: -1.35
10,GCUACAAGGAACAUUAAAGTT against Sacs,inactive: -0.563
11,CCCGAACCAAGGACAAGUATT against Cdx1,inactive: -1.94
12,GGAAGCUACCUGGAUAUCUTT against Astn2,inactive: 0.0365
13,GGGUUUGGUCGUAAACAGCTT against Limd2,inactive: -1.06
14,GGACAGCCAUCUUGAUUUATT against Gstt2,inactive: 0.15
15,GGUUGGACACGAAAGCUUATT against Mecp2,inactive: -1.22
16,GGUGGUGUCAAAAUGAAGCTT against Septin3,inactive: -0.226
17,GCUUUAAGCCCUGCUCUGUTT against Saxo2,inactive: -0.187
18,GGAGAACCCAUUAAAGAAATT against Amd1,inactive: 0.408
19,GGACUAUGGCAAAGAAUCUTT against Rps12,inactive: 0.0955
